{"source": "paper PMC7738850", "key": {"[1]": {"molecular_target": "AR-FL as GST protein (GST pull-down of Figure 5G-H) (UniProt P10275)", "experiment": "pull-down; GST pull-down: in vitro-translated HA- or His-tagged proteins incubated with GST proteins in the presence or absence of BCT; bound proteins detected by immunoblot with anti-HA or anti-His antibody; only the target purified"}, "[2]": {"molecular_target": "AR-V7 as GST protein (GST pull-down of Figure 5G-H) (UniProt P10275)", "experiment": "pull-down; GST pull-down: in vitro-translated HA- or His-tagged proteins incubated with GST proteins in the presence or absence of BCT; bound proteins detected by immunoblot with anti-HA or anti-His antibody; only the target purified"}}, "note": "These are yes or no findings as the source states them, for the method shown. Binding seen in cells or lysates may run through a third protein. Some binding calls cover weakened binding; strength is not graded here."}
{"substance": "His-CHIP, in vitro-translated (from UniProt Q9UNE7 1-303)", "values": [{"measurement": "binding", "setting": "[1]", "value": "binds"}, {"measurement": "binding", "setting": "[2]", "value": "binds"}]}
